Results deposited as PubChem BioAssay AID1159578 (Peter MacCallum Cancer Centre, 2015).

Screen: 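Genome-wide hunt for genes controlling movement of lymphatic endothelial cells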 (primary screen)
Cell system: human lymphatic endothelial cells
Knock-down reagent: siRNA pool against human genes, 40 nM
Time to read-out: 48 h after transfection
Read-out: 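Cells stained with dye and imaged after a scratch; covered wound area and nuclei counted, duplicates averaged, migration set against mock wells and turned into a robust z-score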
Scale: migration robust z-score: higher = faster migration into the scratch; migration relative to mock: higher = more scratch area covered than mock; nuclei per well: higher = more cells in the well
Rule for the call: 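Migration changed when robust z exceeds 2 or falls below -2 and mean nuclei number is at least 3300; otherwise not called changed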
Meaning of the calls: active = migration changed; inactive = no migration change, or too few cells
This is an unselected part of about 18,000 reagents tested. Over the whole deposit, about 1,030 (5.7%) got an active call. 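Inactive calls also include pools with fewer than 3300 nuclei, whose migration was not assessed.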 The raw values are shown without normalisation. Entries without a mark were called inactive.

| gene | migration robust z-score | migration class with cell-count check | migration relative to mock | nuclei per well, duplicate mean |
| --- | --- | --- | --- | --- |
| TMPRSS4 | 0.8 | migration z between -2 and 2; enough cells | 0.96 | 5002 |
| NEU2 | -0.78 | migration z between -2 and 2; enough cells | 0.68 | 4452 |
| RGS22 | -0.98 | migration z between -2 and 2; enough cells | 0.62 | 4104 |
| OR1J1 | -1.24 | migration z between -2 and 2; enough cells | 0.56 | 5800 |
| DCUN1D3 | 0.93 | migration z between -2 and 2; enough cells | 0.98 | 4741 |
| RNH1 | 1.02 | migration z between -2 and 2; enough cells | 1.15 | 5868 |
| PNLIPRP3 | -0.9 | migration z between -2 and 2; enough cells | 0.63 | 5940 |
| GRAP | 1.77 | migration z between -2 and 2; enough cells | 1.34 | 6717 |
| EMP3 | -0.3 | migration z between -2 and 2; enough cells | 0.81 | 5195 |
| RPAIN | -1.05 | migration z between -2 and 2; enough cells | 0.62 | 6631 |
| ORC3 | -0.47 | migration z between -2 and 2; enough cells | 0.76 | 4844 |
| ADGRF1 | 1.12 | migration z between -2 and 2; enough cells | 1.02 | 5970 |
| EPN2 | 1.36 | migration z between -2 and 2; enough cells | 1.24 | 6743 |
| CENPX | -0.56 | migration z between -2 and 2; enough cells | 0.74 | 6632 |
| CLEC11A | 1.5 | migration z between -2 and 2; enough cells | 1.09 | 4801 |
| PTK2B | 0.42 | migration z between -2 and 2; enough cells | 0.88 | 4999 |
| ACKR1 | -0.99 | migration z between -2 and 2; enough cells | 0.62 | 6200 |
| APOBEC3H | 1.61 | migration z between -2 and 2; enough cells | 1.3 | 6336 |
| NLRP1 | 0.76 | migration z between -2 and 2; enough cells | 1.08 | 5946 |
| CPSF4 | -0.12 | migration z between -2 and 2; enough cells | 0.86 | 6124 |
| STK11 | -1.97 | under 3300 nuclei; migration not judged | 0.42 | 1935 |
| CLEC4D | -0.38 | migration z between -2 and 2; enough cells | 0.78 | 6158 |
| PEG3 | 0.26 | migration z between -2 and 2; enough cells | 0.95 | 6065 |
| NENF | -0.2 | migration z between -2 and 2; enough cells | 0.84 | 6732 |
| KLK2 | 0.39 | migration z between -2 and 2; enough cells | 0.88 | 4726 |
| HRAS | 1.56 | migration z between -2 and 2; enough cells | 1.1 | 6612 |
| CLN6 | 0.18 | migration z between -2 and 2; enough cells | 0.93 | 5610 |
| KMT2E | 0.08 | migration z between -2 and 2; enough cells | 0.82 | 4934 |
| EVPL | 0.89 | migration z between -2 and 2; enough cells | 1.12 | 6184 |
| NPHP4 | 0.77 | migration z between -2 and 2; enough cells | 1.08 | 6626 |
| SYNPR | 0.6 | migration z between -2 and 2; enough cells | 1.04 | 6214 |
| ITPKA | -2.51 (active) | migration z below -2; enough cells | 0.32 | 4050 |
| NTN5 | 1.27 | migration z between -2 and 2; enough cells | 1.21 | 5479 |
| CREB5 | 0.24 | migration z between -2 and 2; enough cells | 0.94 | 6420 |
| OR6C70 | 1.4 | migration z between -2 and 2; enough cells | 1.25 | 6202 |
| KRTAP19-6 | -1.06 | under 3300 nuclei; migration not judged | 0.61 | 2612 |
| TDRKH | 0.7 | migration z between -2 and 2; enough cells | 1.06 | 6194 |
| SLC35G3 | -3.13 | under 3300 nuclei; migration not judged | 0.09 | 3110 |
| CRYBB3 | -1.43 | migration z between -2 and 2; enough cells | 0.52 | 5495 |
| CEP19 | 1.54 | migration z between -2 and 2; enough cells | 1.29 | 6108 |
| PPP3CC | -4.41 | under 3300 nuclei; migration not judged | -0.05 | 2305 |
| PPP1R3B | 0.06 | migration z between -2 and 2; enough cells | 0.9 | 4980 |
| PARP3 | -0.39 | migration z between -2 and 2; enough cells | 0.78 | 6772 |
| USF1 | -0.83 | migration z between -2 and 2; enough cells | 0.64 | 5781 |
| ZMYND15 | 1.48 | migration z between -2 and 2; enough cells | 1.27 | 5616 |
| RAB5IF | -0.01 | migration z between -2 and 2; enough cells | 0.88 | 5848 |
| CCDC102A | -2.38 (active) | migration z below -2; enough cells | 0.28 | 5148 |
| ACSS2 | 1.72 | migration z between -2 and 2; enough cells | 1.14 | 6794 |
| DNAJB1 | -0.28 | migration z between -2 and 2; enough cells | 0.82 | 4630 |
| TBC1D3C | -0.88 | migration z between -2 and 2; enough cells | 0.66 | 6344 |
| PANX3 | 0.04 | migration z between -2 and 2; enough cells | 0.9 | 5567 |
| TMEM192 | -0.87 | migration z between -2 and 2; enough cells | 0.66 | 5686 |
| INO80C | -1.19 | migration z between -2 and 2; enough cells | 0.57 | 5470 |
| GCNT1 | 0.13 | migration z between -2 and 2; enough cells | 0.83 | 5226 |
| KCNJ3 | -0.1 | migration z between -2 and 2; enough cells | 0.78 | 5385 |
| SNAPC2 | 0.39 | migration z between -2 and 2; enough cells | 0.88 | 6367 |
| GPSM3 | 1.2 | migration z between -2 and 2; enough cells | 1.19 | 7006 |

Reagents above called active, once more:
| gene | migration robust z-score | migration class with cell-count check | migration relative to mock | nuclei per well, duplicate mean |
| --- | --- | --- | --- | --- |
| ITPKA | -2.51 (active) | migration z below -2; enough cells | 0.32 | 4050 |
| CCDC102A | -2.38 (active) | migration z below -2; enough cells | 0.28 | 5148 |
